Results deposited as PubChem BioAssay AID1259405 (NCATS, 2018).
This is one part, drawn at random, of about 50,000 deposited reagents. About 4,000 of all reagents (8%) were called active. 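Mouse siRNA library applied to hamster cells; one well for each siRNA.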 Reagents against one gene are numbered here. No sequences are given here.

Test: 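Knock-downs that lift recombinant protein yield in hamster ovary cells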 (primary screen)
Cell system: Chinese hamster CHO-K1 ovary cells with stable secreted eGFP expression
Reagents: single siRNA against mouse genes, 0.8 pmol siRNA per well (2 µl of 400 nM stock)
Duration: 3 days
Measured: 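Per-well intracellular GFP measured by laser scanning cytometry, plus viability from ATP luminescence, each relative to plate median of non-targeting control wells, in %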
Scale: GFP, % of control: higher = more GFP per well, higher productivity; viability (ATP), % of control: higher = more viable cells (more ATP)
Hit rule: 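a knock-down is called active if GFP reaches 120% or more of non-targeting control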

target gene | reagent no. | GFP, % of control | viability (ATP), % of control | Call
Tm7sf3 | 1 | 54.6 | 84.2 | inactive
Tm7sf3 | 2 | 122 | 120 | active
Tm7sf3 | 3 | 133 | 140 | active
Plk3 | 1 | 33.8 | 63.2 | inactive
Faim2 | 1 | 67.7 | 57.1 | inactive
Faim2 | 2 | 54.3 | 60.3 | inactive
Faim2 | 3 | 94.2 | 63 | inactive
Chchd10 | 1 | 62.9 | 59.7 | inactive
Chchd10 | 2 | 74.4 | 83.6 | inactive
Chchd10 | 3 | 158 | 127 | active
Srd5a1 | 1 | 168 | 92.3 | active
Srd5a1 | 2 | 67.9 | 73.9 | inactive
Srd5a1 | 3 | 73.8 | 86.6 | inactive
Cenpl | 1 | 83.7 | 65.9 | inactive
Cenpl | 2 | 82.1 | 83.7 | inactive
Cenpl | 3 | 68.4 | 65.1 | inactive
Gorasp1 | 1 | 117 | 90.6 | inactive
Gorasp1 | 2 | 22.6 | 28.2 | inactive
Gorasp1 | 3 | 114 | 84.8 | inactive
Taar1 | 1 | 39.1 | 41.9 | inactive
Taar1 | 2 | 74.5 | 80.9 | inactive
Taar1 | 3 | 94.6 | 103 | inactive
Bfsp2 | 1 | 85.4 | 93.9 | inactive
Bfsp2 | 2 | 66.8 | 65.8 | inactive
Bfsp2 | 3 | 45.3 | 71.8 | inactive
Slc8a2 | 1 | 48.3 | 60.4 | inactive
Slc8a2 | 2 | 54.2 | 48.8 | inactive
Slc8a2 | 3 | 76 | 75.9 | inactive
Heatr1 | 1 | 67 | 52.7 | inactive
Heatr1 | 2 | 25.7 | 37.6 | inactive
Heatr1 | 3 | 68.9 | 66 | inactive
Tmem14c | 1 | 46.6 | 46.6 | inactive
Tmem14c | 2 | 73.7 | 146 | inactive
Tmem14c | 3 | 114 | 120 | inactive
Mmp8 | 1 | 130 | 136 | active
Mmp8 | 2 | 80 | 65.3 | inactive
Zfpm2 | 1 | 73.2 | 95.7 | inactive
Zfpm2 | 2 | 68.2 | 95.4 | inactive
Or51ab3 | 1 | 165 | 55.7 | active
Or51ab3 | 2 | 77.8 | 85.1 | inactive
Or51ab3 | 3 | 67.5 | 59.5 | inactive
Thrsp | 1 | 57.7 | 72.9 | inactive
Thrsp | 2 | 84.3 | 83.3 | inactive
Thrsp | 3 | 118 | 91.8 | inactive
Tab3 | 1 | 94.4 | 107 | inactive
Tab3 | 2 | 84.4 | 84.9 | inactive
Rfxank | 1 | 92.2 | 84 | inactive
Rfxank | 2 | 120 | 93.9 | active
Rfxank | 3 | 84.8 | 94.9 | inactive
Qprt | 1 | 55.7 | 126 | inactive
Qprt | 2 | 85.5 | 87.4 | inactive

Part of the list above, limited to “GFP, % of control”:
Faim2 #1 = 67.7
Faim2 #2 = 54.3
Faim2 #3 = 94.2
Chchd10 #1 = 62.9
Chchd10 #2 = 74.4
Chchd10 #3 = 158
Srd5a1 #1 = 168
Srd5a1 #2 = 67.9
Srd5a1 #3 = 73.8
Cenpl #1 = 83.7
Cenpl #2 = 82.1
Cenpl #3 = 68.4

Next reagents:
target gene | reagent no. | GFP, % of control | viability (ATP), % of control | Call
Rcbtb1 | 1 | 101 | 81.1 | inactive
Rcbtb1 | 2 | 93.2 | 85.7 | inactive
Rcbtb1 | 3 | 50.7 | 68 | inactive
Gna11 | 1 | 91.6 | 113 | inactive
Gna11 | 2 | 90 | 71.8 | inactive
Gna11 | 3 | 41.6 | 40.3 | inactive
Or5g9 | 1 | 101 | 86 | inactive
Or5g9 | 2 | 66.4 | 91 | inactive
Or5g9 | 3 | 71.8 | 67.6 | inactive
Bri3 | 1 | 78.4 | 73.6 | inactive
Bri3 | 2 | 102 | 91.9 | inactive
Bri3 | 3 | 134 | 144 | active
Svs6 | 1 | 122 | 84.8 | active
Svs6 | 2 | 87.8 | 87.4 | inactive
Svs6 | 3 | 92.9 | 109 | inactive
Gata3 | 1 | 72.6 | 52.7 | inactive
Gata3 | 2 | 92.3 | 78.8 | inactive
Gata3 | 3 | 96 | 82.9 | inactive
Hnrnpa3 | 1 | 53.8 | 34.9 | inactive
Hnrnpa3 | 2 | 49.5 | 59.4 | inactive
Hnrnpa3 | 3 | 70.5 | 70.5 | inactive
Trpv4 | 1 | 175 | 117 | active
Trpv4 | 2 | 37.6 | 42.9 | inactive
Trpv4 | 3 | 81.8 | 58.5 | inactive
Thap1 | 1 | 66.4 | 90.8 | inactive
Thap1 | 2 | 72.7 | 113 | inactive
Thap1 | 3 | 117 | 116 | inactive
Ccdc47 | 1 | 61.7 | 67.2 | inactive
Ccdc47 | 2 | 90.6 | 68.6 | inactive
Ccdc47 | 3 | 61.8 | 71 | inactive
Ugt2b38 | 1 | 71.5 | 61.1 | inactive
Ugt2b38 | 2 | 80.4 | 66.2 | inactive
Ugt2b38 | 3 | 62.1 | 50.8 | inactive
